According to PubChem BioAssay AID1259415 (National Center for Advancing Translational Sciences (NCATS), 2018):
The whole screen tested about 410,000 compounds, of which about 18,000 (4.4%) were called active. This list was built around the results that the source calls inconclusive (neither active nor inactive); the mix of calls is not that of the screen. Cut-off read from the data, not from the text of the source: active = activity change below about -60%; inconclusive = no clear call, values can overlap the other calls; inactive = above about -39%. More than one record can exist for a structure, and the calls need not agree.

Test: qHTS Assay for inhibitors of the human cytomegalovirus (HCMV)
Conditions: HFF cells, HCMV-luciferase reporter, 72 h; at 57.5 µM; active compounds read low
In short: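 Cell-based, HFFs, 1000 cells/well, 16 h 37C; cpds in DMSO + HCMV-luc, MOI 1 PFU/cell; 72 h 37C; OneGlo luminescence after 5 min RT; norm. to buffer vs Salinomycin 10uM.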
% is set by controls: 0 for no effect and ±100 for the full control effect.

SMILES	activity change, negative = inhibition
COc1ccc(S(=O)(=O)Nc2ccc(C)cc2)cc1N(C)S(=O)(=O)c1ccc(Cl)cc1	active: -99%
Cc1cccc[n+]1CC(=O)c1ccc([N+](=O)[O-])cc1	active: -86.8%
CCc1ccc(C(=O)c2cn(CC(=O)Nc3ccc(F)cc3)c3ccc(OC)cc3c2=O)cc1	active: -70.5%
COc1ccc(OCc2cc(C(=O)N(C)CC3CCCCO3)no2)c(Cl)c1 (stereo not given)	inconclusive: -41.4%
COc1ccc(NC(=O)Cn2c(=O)n(C(C)C)c(=O)c3oc4ccccc4c32)cc1Cl	inconclusive: -47.3%
COc1ccc(C(=O)Cn2nnc(-c3ccccc3NC(=O)c3ccco3)n2)cc1	inconclusive: -43.7%
CCOC1CCCc2oc(-c3ccc(OC)cc3)c(C(=O)NCCCCO)c21 (stereo not given)	inactive: 16.7%
CCOc1ccc(NC(=O)N2CCN(S(=O)(=O)c3ccc4c(ccn4C)c3)CC2)cc1	inconclusive: -49.2%
COc1ccccc1N(CC(=O)NCCSCc1ccccc1)S(=O)(=O)c1ccc(C)cc1	active: -63.1%
CCOc1ccccc1N1CC(C(=O)NC2CCCCCC2)CC1=O (stereo not given)	inactive: 10.3%
COc1ccccc1-c1ccc2c(c1)C(C)(Cc1cc(Cl)ccc1C(F)(F)F)C(=O)N2 (stereo not given)	inconclusive: -44.5%
CCOC(=O)c1c(NCCN(C)C)c2ccccc2[nH]c1=O	inactive: -35.6%
O=C(COC(=O)c1ccccc1F)Nc1cc(S(=O)(=O)N2CCOCC2)ccc1N1CCCC1	inactive: -28.5%
CN(C)c1nc2c(N)ncnc2n1[C@H]1O[C@@H](CO)[C@H](O)[C@@H]1O	active: -69.7%
Cc1cc(NC(=O)Nc2csc3c2CCCC3)ccc1Br	inconclusive: -46.9%
CC(C)[N+]1(C)[C@@H]2CC[C@H]1CC(OC(=O)C(CO)c1ccccc1)C2 (stereo not given in full)	inconclusive: -55.9%
Cc1c(NC(=O)c2ccc(N3CCC(C)CC3)c([N+](=O)[O-])c2)cccc1-c1nc2ccccc2o1	inactive: -4.19%
CC1CCCC(NC(=O)CCCn2c(=S)[nH]c3ccccc3c2=O)C1C (stereo not given)	inconclusive: -53.7%
Cc1c2c(nc3ccccc13)CCC(C(C)(C)C)C2 (stereo not given)	inconclusive: -42.2%
C#CCOCCOCCOCCNc1nc(N2CCOCC2)nc(N2CCN(C(=O)[C@H](Cc3cc4ccccc4[nH]3)n3cc([C@@H](N)C(C)CC)nn3)CC2)n1 (stereo not given in full)	inconclusive: -50.2%
O=C(Cn1cc([N+](=O)[O-])cn1)NCc1ccco1	inconclusive: -46.4%
O=C(/C=C/c1ccc(Cl)cc1)N1CCOCC1	inactive: 54.6%

Some of the entries so far, with each value named.
Cc1cc(NC(=O)Nc2csc3c2CCCC3)ccc1Br
  activity change, negative = inhibition: inconclusive: -46.9%
CC(C)[N+]1(C)[C@@H]2CC[C@H]1CC(OC(=O)C(CO)c1ccccc1)C2 (stereo not given in full)
  activity change, negative = inhibition: inconclusive: -55.9%

Pulled by structure from above:
SMILES	activity change, negative = inhibition
CC(C)[N+]1(C)[C@@H]2CC[C@H]1CC(OC(=O)C(CO)c1ccccc1)C2 (stereo not given in full)	inconclusive: -55.9%
COc1ccccc1N(CC(=O)NCCSCc1ccccc1)S(=O)(=O)c1ccc(C)cc1	active: -63.1%
CC1CCCC(NC(=O)CCCn2c(=S)[nH]c3ccccc3c2=O)C1C (stereo not given)	inconclusive: -53.7%
COc1ccc(C(=O)Cn2nnc(-c3ccccc3NC(=O)c3ccco3)n2)cc1	inconclusive: -43.7%

Further entries.

SMILES	activity change, negative = inhibition
C=CCn1c(SCC(=O)Nc2ccc3c(c2)OCO3)nnc1-c1ccccc1O	inconclusive: -46.5%
c1cc(OCCN2CC2)ccn1	active: -100%
COc1ccccc1N(C(=O)c1snc(C(N)=O)c1N)C(C(=O)NC1CCCC1)c1ccc(N(C)C)cc1 (stereo not given)	inactive: 4.37%
COc1ccc(CCN2C(=O)N(c3ccc(F)cc3)C(=O)C2CC(=O)Nc2ccc(F)c(F)c2)cc1 (stereo not given)	inconclusive: -41%
CN(C)CCN(Cc1ccccc1)S(=O)(=O)c1ccc2c(c1)n(C)c(=O)c(=O)n2C	inconclusive: -41%
O=C(c1ccco1)N1CCN(C(=O)N2c3ccccc3Sc3ccccc32)CC1	inconclusive: -55.6%
COc1ccc(C(=O)C2CCN(C(=S)NCCc3ccc(OC)c(OC)c3)CC2)cc1	inconclusive: -42.9%
Clc1cccc(-c2nnc(SCc3nc4ccccc4[nH]3)n2Cc2ccco2)c1	inconclusive: -56.8%
Cc1ccc(N(CCC#N)C(=O)COC(=O)c2ccccc2SCC(=O)N2CCCC2)cc1	inconclusive: -44.4%
CCOc1ccccc1N(C)C(=O)CCS(=O)(=O)c1ccc2c(c1)NC(=O)C(C)S2 (stereo not given)	inactive: -18.1%
O=C(NC1CCCC1)c1ccc2c(c1)N(Cc1ccccc1F)C(=O)c1ccccc1S2	inconclusive: -55.1%
CC1(C(=O)NS(=O)(=O)c2cccs2)CCN1C(=O)C1CCCCC1 (stereo not given)	inactive: 28.4%
O=C(CSc1n[nH]c(-c2ccccc2Cl)n1)N1CCN(c2ccccc2F)CC1	inactive: 3.7%
Cc1ccc(NC(NC(=O)c2ccccc2[N+](=O)[O-])C(Cl)(Cl)Cl)cc1 (stereo not given)	inconclusive: -53.7%
CCCNC(=O)c1ccc(S(=O)(=O)c2ccc(OC)cc2)c([N+](=O)[O-])c1	inconclusive: -54%
OC(Cc1ccccc1Br)c1ncc(-c2cccc(C(F)(F)F)c2)[nH]1 (stereo not given)	inconclusive: -44.9%
CCn1cc(C(=O)NCc2ccccc2Cl)c(=O)c2cc(S(=O)(=O)N3CCCCC3)ccc21	inactive: 18.9%
O=C1/C(=C/c2cccs2)N=C(c2cccs2)N1Nc1ccccc1	inconclusive: -50.1%
O=S(=O)(NC1CCCC1)c1ccc(S(=O)(=O)N2CCc3ccccc32)cc1	active: -98.5%
Cc1nc2ccccc2n1C1CCN(CC(=O)Nc2ccccc2Br)CC1	inconclusive: -40.1%
CNC[C@H](O)c1ccc(O)c(O)c1	inactive: 21.9%
O=C(CSc1ncnc2ccccc12)c1ccc2c(c1)OCCO2	inconclusive: -44.6%

SMILES	activity change, negative = inhibition
CC(C)(C)C1COc2ccccc2N1C(=O)c1ccccc1Cl (stereo not given)	inconclusive: -55%
Cc1ccc(N2CC(C(=O)NC3=NCCS3)CC2=O)cc1C (stereo not given)	inconclusive: -41%
CC(=O)N/C(=C/c1ccc2c(c1)OCO2)C(=O)Nc1ccccc1	inactive: -15%
Cc1cccc(C)c1NC(=O)Cn1c(=O)c(N2CCCCC2)c(N)n(C)c1=O	inactive: 20.8%
CCC(C)(C)NC(=O)/C=C/c1cc(OC)c(OC)c(S(=O)(=O)N2CCc3ccccc32)c1	inconclusive: -53%
CC(C)C[C@H]1CN=C(Nc2ccccc2)N1CCCC1CCCC1	active: -70%
CCc1ccc(N2CC(C(=O)N/N=C/c3cc([N+](=O)[O-])ccc3O)CC2=O)cc1 (stereo not given)	inconclusive: -53.6%
COc1ccc(C(=O)NC2CCCN(Cc3ccc(Cl)cc3)C2)c(OC)c1 (stereo not given)	inconclusive: -56.5%
Cc1ccc(S(=O)(=O)c2nc(S(C)(=O)=O)sc2N2CCCCCC2)cc1	inconclusive: -52.5%
CC(NC(=O)CSc1ncn[nH]1)c1ccc(Cl)cc1Cl (stereo not given)	active: -60.9%
COc1cc(OC)cc(N(C(=O)C2COc3ccccc3O2)C(C(=O)NC2CCCCC2)c2ccc(O)cc2)c1 (stereo not given)	active: -77.2%
Cc1[nH]c2ccccc2c1/C=N/NC(=O)c1cc(-c2cccs2)[nH]n1	inconclusive: -47.3%
COc1ccc(N2C(=O)NC3CC2(C)Oc2ccccc23)cc1 (stereo not given)	inconclusive: -41.3%
CCc1ccccc1NC(=O)Nn1cnnc1	inconclusive: -41.1%
Cc1ccc(-n2ncc(C(=O)NCC3CCN(C4CCCC4)C3)c2C2CCN(C(=O)OC(C)(C)C)CC2)cc1 (stereo not given)	inconclusive: -47.2%
CCC(=O)NC(c1ccc(OC)c(OC)c1)c1cc(Cl)c2cccnc2c1O (stereo not given)	active: -110%
CC(=O)c1ccc(N2CCN(C(=O)CCCn3c(=O)[nH]c4ccc(Br)cc4c3=O)CC2)cc1	inconclusive: -51.1%
O=C(CC1C(=O)NCCN1Cc1ccc(F)c(F)c1)NCCCn1ccnc1 (stereo not given)	inconclusive: -40.1%
O=C(Nc1cccc(C(F)(F)F)c1)c1ccc(-n2cncn2)nc1	inconclusive: -57.5%
COc1ccccc1NC(=S)NCc1ccc2c(c1)cc(C)n2C	inconclusive: -51.2%
c1ccc(N2CCN(Cc3ccnc4ccccc34)CC2)cc1	active: -83%
CCCCOc1ccc(C(=O)Nc2cc(C)c(OCC(=O)N3CCOCC3)c(C)c2)cc1	inconclusive: -55.7%

SMILES	activity change, negative = inhibition
CC(=O)Nc1ccc(S(=O)(=O)NCCc2ccc3c(c2)OCCO3)cc1	inactive: -11.1%
Cn1c(CNC(=O)Nc2ccccc2)nnc1SCc1ccccc1	inactive: 37.6%
CCC(CC)c1nnc(NC(=O)c2ccc(N3CCCCC3)c([N+](=O)[O-])c2)s1	inconclusive: -44.3%
O=C(Nc1ccccc1C(=O)NC(Cc1ccccc1)C(=O)NC1CCCCC1)c1ccccc1 (stereo not given)	inconclusive: -44%
O=C(CSc1nc(O)c(C(c2ccccc2)c2ccccc2)c(=O)[nH]1)N1CCOCC1	inactive: 14.6%
Cc1ccc(Sc2ccc(NC(=O)c3ccc(F)cc3)cc2C#N)cc1	inconclusive: -42%
CC1C(=O)N2CCCc3cc(S(=O)(=O)N(C)Cc4ccccc4)cc1c32 (stereo not given)	inconclusive: -45.3%
Cc1ccc(-c2cc(C(=O)NCc3ccccc3)c3c(-c4ccc(C)cc4)[nH]nc3n2)cc1	inactive: 8.28%
O=C(/C=C/c1cccc(Cl)c1)NCc1ccccc1	inconclusive: -49%
CC(C)c1ccc(-c2csc3nc[nH]c(=O)c23)cc1	inconclusive: -50.6%
Cc1sc(N/N=C/c2cccs2)nc1-c1ccccc1	inconclusive: -46.5%
COc1ccc(CCC(=O)Nc2ccc(Cl)c(S(=O)(=O)N3CCOCC3)c2)cc1OC	active: -69%
CCc1ccccc1NC(=O)CSc1nnc(CC)c(CC)n1	inconclusive: 0%
CSc1ccccc1OCc1cc(C(=O)N2CCc3[nH]cnc3C2c2ccccn2)no1 (stereo not given)	active: -60.2%
O=C(NCCc1ccc(Cl)cc1)c1ccc(CS(=O)(=O)Cc2ccccc2F)o1	inactive: -37.5%
O=C1CNC(=S)N1Cc1ccc(Cl)cc1	inconclusive: -44.6%
COC(=O)Nc1nc2ccc(C(=O)c3cccs3)cc2[nH]1	active: -75.3%
CCC(CC)NC(=O)CC(c1ccccc1)c1ccccc1	inconclusive: -44.5%
CC(C)c1ccc(Nc2c(-c3ccccc3O)nc3cnccn23)cc1	inactive: -30.7%
